Source: patent publication US11357786B2, “Synthetic disugar hydrocarbons as natural analogs to control microbial behaviors” (Syracuse University, priority 2014, dated 2022)
Some of these results come from one statement about several compounds together. For at least one compound, name, drawing or mass did not settle the structure.

Experiments:
[1] = system: PAO1-GFP; type: cell-based, Pseudomonas aeruginosa; conditions: 85 μM, 2 h
Protocol: A crystal violet (CV) assay was used to measure the amount of PAO1 biofilm formed after 24 h of bacterial inoculation. The fluorescence of green fluorescent proteins (GFP) expressed by PAO1-GFP was measured to directly quantify bacterial adhesion on polystyrene black 96 well plates with and without maltose derivatives after 2 h of bacterial inoculation. To evaluate the potential of maltose derivatives as both anti-biofilm and anti-adhesion agents, they were compared to a brominated furanone (BF8) known to inhibit biofilm formation, and two generic surfactants, sodium dodecyl sulfate (SDS) and tetra (ethylene glycol) monododecyl ether (C12EG4OH). […] P. aeruginosa strain PAO1-EGFP that constitutively producing green fluorescent protein was allowed to form biofilm on sterile steel coupons.
Overnight culture of PAO1-GFP was subcultured to an OD600 of 0.01 into the 95:5 M9+:Lb medium. Subculture was allowed to reach the OD600 of 0.1 in a rotary shaker at 250 rpm and 37° C. 200 μL of the subculture was then transferred to the wells of black microtiter plate with and without (control) maltose derivatives. […] Fresh 95:5 M9+:Lb medium was added to the black 96 well plate and fluorescence of the surface adhered bacteria was measured by Synergy 2 multi-mode microplate reader with Gen5 data analysis software at an excitation wavelength of 500 nm and an emission wavelength of 540 nm. […]

[2] = system: wild type PAO1; experiment: Swarming motility of wild type PAO1 on soft agar (antagonist assay); type: cell-based, Pseudomonas aeruginosa
Protocol: In contrast, the wild type P. aeruginosa produces the rhamnolipids and is capable of swarming on soft agar gel (˜0.5% agar). […] We note that saccharide hydrocarbons may also promote the swarming motility, but such promotions are less unambiguous than the inhibition for wild type PAO1. Such promotion will be unambiguous in the agonist assay using the nonswarming mutant rhlA.
Swarm agar plates were based on M8 medium supplemented with 0.2% glucose, 0.5% casamino acid, 1 mM MgSO4 and […]. 17 For each set of experiment all the swarm plates were poured from same batch of agar and allowed to dry for 1 h before inoculation of bacteria. Bacterial culture (3 μl) (wild type PAO1 or rhlA mutant) with OD600 between […] was inoculated on the solidified agar plates. Swarm agar plates were incubated at 37° C. for 12 h and then incubated for additional 12 h at room temp. Chronological images of swarm plates were taken using a camera. To measure swarming area, sizes of the petridish in all swarming images were adjusted to a pre-assigned diameter and images were printed on copying paper (Xerox-business 4200). Weight of a 1 cm^2 copy paper square was roughly ˜8.0 mg. swarming images on the copy paper were cut and weighed, the swarm area was calculated by dividing the weight of image by weight of 1 cm^2 square (8 mg). […]

| Molecule | Inhibition of PAO1-EGFP adhesion on polystyrene [1] | further results |
| --- | --- | --- |
| CCCCCCCCC(CO[C@@H]1O[C@H](CO)[C@@H](O[C@H]2O[C@H](CO)[C@@H](O)[C@H](O)[C@H]2O)[C@H](O)[C@H]1O)Cc1ccc(C(C)(C)C)cc1 (stereo partly drawn) [4-tBuBDeβM, 4-tertiary butyl benzyl decyl β-maltoside] | more than 80% | – |
| CCCCCCCCCCCCO[C@@H]1O[C@H](CO)[C@@H](O[C@@H]2O[C@H](CO)[C@@H](O)[C@H](O)[C@H]2O)[C@H](O)[C@H]1O [DβC (4), dodecyl-β-cellobioside] | – | Concentration of activity reversal for swarming inhibition of PAO1 (transition concentration) ([2]; listed as 4): 20 to 30 µM |
| CCCCCCCCCCCCCO[C@@H]1O[C@H](CO)[C@@H](O[C@@H]2O[C@H](CO)[C@@H](O)[C@H](O)[C@H]2O)[C@H](O)[C@H]1O [TβC (5), tridecyl-β-cellobioside] | – | Concentration of activity reversal for swarming inhibition of PAO1 (transition concentration) ([2]; listed as 5): 20 to 30 µM |
| benzyl dodecyl β-maltoside [BDβM] | more than 80% | – |
